About 1,000 (0.3%) of roughly 330,000 compounds were called active. This list was built around the results that the source calls inconclusive (neither active nor inactive); the mix of calls is not that of the screen. Calls come from the whole dose curve; as a rule, active = well fitted inhibition curve with a large enough effect; inconclusive = small, poorly fitted or top-dose-only effect; inactive = no such curve, though single readings can be large or run the other way; tested in mouse RAW 264.7 cells. Potencies beside an inconclusive call are fits to weak or partial responses and may not hold up.
Assay: qHTS for Inhibitors of Cell Surface uPA Generation; note: nearly all actives have a fitted effect of over 55% in size
Conditions: cell surface uPA generation assay; series mostly up to 38.3 µM
How it was run: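 RAW 264.7, 4000 cells/well, o/n 37 C; cpd 1:5 dilution, up to 38.3 uM final; 24 h 37 C/5% CO2 with reagent; ATP-Lite lum. High ATP = LF entry blocked.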
Potency is the fitted concentration of half-maximal effect.

Row | SMILES | Potency
1 | CC(C)(C)N1C(=O)c2ccc(C(=O)Nc3ccc(C(=O)O)cc3)cc2C1=O | inactive
2 | CCS(=O)c1ccccc1C(=O)OCC(=O)Nc1cccc(S(=O)(=O)N2CCCCC2)c1 (configuration not stated) | inconclusive: 14.1 µM [inhibitor, partial curve, poor fit]
3 | COc1ccc(CNS(=O)(=O)c2cc(-c3cc(C)no3)ccc2C(C)C)cc1 | inconclusive: 1.12 µM [inhibitor, single point]
4 | C[C@@H](NC(=O)c1[nH]cnc1C(=O)Nc1ccc(Cl)cc1)c1ccccc1 | inconclusive: 12.6 µM [inhibitor, single point]
5 | Cn1c(SCC(=O)N/N=C/c2ccc(O)c(O)c2)nc2ccccc21 | inconclusive: 11.2 µM [inhibitor, partial curve, poor fit]
6 | CCN(CC)CCSc1nnc2c3ccccc3n(CCc3ccccc3)c2n1 | inconclusive: 12.6 µM [inhibitor, partial curve, poor fit]
7 | COc1ccc(OCCCC(=O)N(CCC2=CCCCC2)c2c(N)n(Cc3ccccc3)c(=O)[nH]c2=O)cc1 | inactive
8 | O=C(Nc1nc2cc3c(cc2s1)OCO3)c1cccc(N2C(=O)CCC2=O)c1 | inconclusive: 0.794 µM [inhibitor, full curve, poor fit]
9 | O=C(N/N=C/c1cccc(OC(=O)c2cccc(Br)c2)c1)c1cccnc1 | inconclusive: 7.94 µM [inhibitor, single point]
10 | CCN(CC)CCC(=O)N1c2ccccc2Sc2ccc(Cl)cc21 | inconclusive: 8.91 µM [inhibitor, partial curve, poor fit]
11 | CN(C)C1=NC[C@H](Cc2ccccc2)N1CC1CCCCCC1 | inconclusive: 7.08 µM [inhibitor, partial curve]
12 | COc1ccc(NC(=S)NC(NC(=O)CCl)C(Cl)(Cl)Cl)c([N+](=O)[O-])c1 (configuration not stated) | inconclusive: 8.91 µM [inhibitor, partial curve, poor fit]
13 | C[C@H]1COC(=O)[C@@H](Cc2ccc(F)cc2)C/C=C\C[C@@H](CC(=O)N[C@@H](CO)Cc2ccccc2)C(=O)N1 | inconclusive: 12.6 µM [inhibitor, single point]
14 | COc1ccccc1/C=C1\SC(=S)N(C(C(=O)O)c2ccccc2)C1=O (configuration not stated) | inactive
15 | CC(=O)n1c2c(c3ccccc31)OC(N)=C(C#N)C2c1cccc(Cl)c1Cl (configuration not stated) | inconclusive: 8.91 µM [inhibitor, partial curve, poor fit]
16 | CC(C)NC(=O)c1ccc2c3n(nc2c1)-c1ccc(Cl)cc1CO3 | inconclusive: 4.47 µM [inhibitor, partial curve, poor fit]
17 | Cc1ccc(NC(=O)CNCC2CCCCC2)cc1S(=O)(=O)N(C)C | inactive
18 | Fc1ccc(C2=NNC(=NCc3ccccc3)SC2)cc1F | inactive
19 | COc1cc(OC)c2c(c1)O/C(=C\c1ccccc1)C2=O | inconclusive: 10 µM [inhibitor, single point]
20 | CCCCn1nc(C(=O)NCC(c2cccs2)N2CCOCC2)c2ccccc2c1=O (configuration not stated) | active: 11.2 µM
21 | Cc1cc(C)cc(C(=O)OCC(=O)NC2CCCC2)c1 | inactive
22 | c1ccc(-n2nnnc2-c2cccc3ccccc23)cc1 | inconclusive: 2 µM [inhibitor, full curve, poor fit]
23 | Cc1cc(Sc2ccc([N+](=O)[O-])cn2)ccc1Br | inactive

Taken from above.
Potency, `CC(C)NC(=O)c1ccc2c3n(nc2c1)-c1ccc(Cl)cc1CO3` reads inconclusive: 4.47 µM [inhibitor, partial curve, poor fit]
Potency, `Cc1cc(C)cc(C(=O)OCC(=O)NC2CCCC2)c1` reads inactive
Potency, `Cn1c(SCC(=O)N/N=C/c2ccc(O)c(O)c2)nc2ccccc21` reads inconclusive: 11.2 µM [inhibitor, partial curve, poor fit]
Potency, `COc1ccc(OCCCC(=O)N(CCC2=CCCCC2)c2c(N)n(Cc3ccccc3)c(=O)[nH]c2=O)cc1` reads inactive

(cont.)

Row | SMILES | Potency
24 | CCOC(=O)c1[nH]c(C)c(C(=O)OCc2ccccc2F)c1C | inconclusive: 1.26 µM [inhibitor, full curve, poor fit]
25 | O=C(NCC1CCCO1)c1cc(-c2ccccc2)on1 (configuration not stated) | inconclusive: 4.47 µM [inhibitor, partial curve]
26 | COc1ccc(/C=C2/SC(=S)N(CCCC(=O)Nc3ccc(O)cc3)C2=O)cc1OC | inconclusive: 4.47 µM [inhibitor, partial curve, poor fit]
27 | CCC1CSC(Nc2ccc(C(=O)/C=C/c3cccc(C)c3)cc2)=N1 (configuration not stated) | inconclusive: 3.55 µM [inhibitor, partial curve, poor fit]
28 | Cc1cccc2cc(C3CC(c4cccs4)=NN3S(C)(=O)=O)c(Cl)nc12 (configuration not stated) | inconclusive: 7.08 µM [inhibitor, single point]
29 | Cc1ccc2cc(/C=N/Nc3nc4ccccc4[nH]3)c(Cl)nc2c1 | inconclusive: 0.708 µM [inhibitor, full curve, poor fit]
30 | COc1cc(-c2cc(=O)c3ccccc3o2)ccc1O | inconclusive: 10 µM [inhibitor, single point]
31 | O=C(CCl)Nc1ccc(N=Nc2ccccc2)cc1 | active: 14.1 µM
32 | O=C(O)c1ccccc1C(=O)Nc1ccc(S(=O)(=O)NC2CCCCC2)cc1 | inactive
33 | CC(C)N=c1scc(-c2ccco2)n1/N=C/c1ccc(O)c(O)c1 | inconclusive: 2.51 µM [inhibitor, partial curve, poor fit]
34 | O=C(O)c1ccc(N=Nc2c(O)[nH]c3ccccc23)cc1 | inactive
35 | CC(C)(C)OC(=O)NCc1ccc(NC(=O)c2nc[nH]c2C(=O)NCCCCNC(=O)c2[nH]cnc2C(=O)Nc2ccc(CNC(=O)OC(C)(C)C)cc2)cc1 | inactive
36 | O=c1[nH]c(C2CCN(S(=O)(=O)c3ccc4c(c3)OCCO4)CC2)nc2c1nnn2Cc1ccc(F)cc1 | inactive
37 | Fc1cccc(CSc2ncnc3c2ncn3C2CCCCO2)c1 (configuration not stated) | inactive
38 | COc1cccc(C(=O)Nc2ccc(NC(=O)C3C4C=CC(C4)C3C(=O)O)cc2)c1 (configuration not stated) | inconclusive: 17.8 µM [inhibitor, single point]
39 | O=C(CNc1ccccc1)Nc1cccc2ccccc12 | inactive
40 | OC(COc1ccc2ccccc2c1Br)Cn1cnc(-c2ccccc2)c1 (configuration not stated) | inactive
41 | Oc1c(Cl)cc(Cl)cc1/C=N/Nc1ncc(Br)cn1 | inactive
42 | Cc1cc(C(=O)Nc2cc(C(C)(C)C)on2)c(C)o1 | inconclusive: 3.55 µM [inhibitor, partial curve]
43 | CC1CCCN(S(=O)(=O)c2ccc([N+](=O)[O-])cc2)C1 (configuration not stated) | inconclusive: 31.6 µM [inhibitor, single point]
44 | CC(=O)N1CCc2cc(S(=O)(=O)N3c4ccccc4CC3C)ccc21 (configuration not stated) | inconclusive: 1.41 µM [inhibitor, full curve, poor fit]
45 | COCCNC(=O)c1cccc(S(=O)(=O)N2CC3(C)CC2CC(C)(C)C3)c1 (configuration not stated) | active: 3.98 µM
46 | COc1ccc(Cl)cc1C(=O)Nn1c(-c2cccs2)nc2ccccc2c1=O | inconclusive: 8.91 µM [inhibitor, single point]

Row | SMILES | Potency
47 | O=C(NCC(c1cccs1)N1CCOCC1)c1ccc(Cl)s1 (configuration not stated) | inconclusive: 1 µM [inhibitor, partial curve]
48 | CN(C)S(=O)(=O)N1CCC(Oc2cccc(C(=O)NCCCC3CCCC3)c2)CC1 | inconclusive: 0.891 µM [inhibitor, full curve, poor fit]
49 | CC(C)Cc1nc2sc3c(c2c(=O)n1N)CC(C(C)C)OC3 (configuration not stated) | inactive
50 | C#CCN(Cc1ccccc1)S(=O)(=O)C=C | inconclusive: 8.91 µM [inhibitor, single point]
51 | NC(=O)CC(NC(=O)Cc1ccc(Br)cc1)c1ccc(NC2CCC2)c([N+](=O)[O-])c1 (configuration not stated) | inconclusive: 7.94 µM [inhibitor, partial curve, poor fit]
52 | O=C(CSc1nc(C2CC2)nc2ccccc12)Nc1ccccc1N1CCOCC1 | inconclusive: 11.2 µM [inhibitor, single point]
53 | O=C(NC(=S)Nc1ccc(O)cc1)c1ccccc1Cl | inconclusive: 4.47 µM [inhibitor, partial curve, poor fit]
54 | Cc1cc(C)c(C(=O)COC(=O)C2CCN(c3ccc(C(F)(F)F)cn3)CC2)cc1C | inactive
55 | CCc1cc(Cn2nc(-c3ccccc3)cc2C(=O)NCc2cccc(Br)c2)on1 | inconclusive: 12.6 µM [inhibitor, single point]
56 | Cc1nn2c(N3CCOCC3)cc(C(C)C)nc2c1-c1ccccc1 | inconclusive: 0.316 µM [inhibitor, partial curve, poor fit]
57 | CCc1nnc(NC(=O)c2ccc(OC)cc2OC)s1 | inconclusive: 5.01 µM [inhibitor, partial curve, poor fit]
58 | CCC1(CC)Nc2ccccc2C(=O)N1c1ccc(OC)cc1 | inconclusive: 11.2 µM [inhibitor, partial curve]
59 | O=c1cc(-c2ccccc2)[nH]n1-c1nc2ccccc2s1 | inactive
60 | COc1ccccc1-n1cnc2cc(NC(=O)c3ccco3)ccc21 | inconclusive: 3.16 µM [inhibitor, partial curve, poor fit]
61 | O=C(O)c1ccc(N/N=C/c2ccc3nccnc3c2)cc1 | inconclusive: 14.1 µM [inhibitor, single point]
62 | CC1CCC/C(=C\c2ccc(O)cc2)C1=O (configuration not stated) | inconclusive: 7.94 µM [inhibitor, partial curve, poor fit]
63 | COc1ccc(-c2ccc(SCc3cccnc3)nn2)cc1OC | inconclusive: 1 µM [inhibitor, full curve]
64 | CCN(CC)c1ccc(CN2CCC(C(=O)NCc3ccc(C)cc3)CC2)cc1 | inconclusive: 10 µM [inhibitor, single point]
65 | O=C(/C=C/c1ccc([N+](=O)[O-])s1)N1CCN(c2ccccc2)CC1 | inconclusive: 2 µM [inhibitor, partial curve, poor fit]
66 | CCCCN(CC)C(=O)C1CCC(CNS(=O)(=O)c2cccc3nsnc23)CC1 (configuration not stated) | inactive
67 | CN(C(=O)c1ccc(S(=O)(=O)c2cccc(Cl)c2)c([N+](=O)[O-])c1)C1CCCCC1 | inactive

Arranged by count of non-hydrogen atoms (descending): 3 of the compounds above.
Row | SMILES | Potency
13 | C[C@H]1COC(=O)[C@@H](Cc2ccc(F)cc2)C/C=C\C[C@@H](CC(=O)N[C@@H](CO)Cc2ccccc2)C(=O)N1 | inconclusive: 12.6 µM [inhibitor, single point]
52 | O=C(CSc1nc(C2CC2)nc2ccccc12)Nc1ccccc1N1CCOCC1 | inconclusive: 11.2 µM [inhibitor, single point]
53 | O=C(NC(=S)Nc1ccc(O)cc1)c1ccccc1Cl | inconclusive: 4.47 µM [inhibitor, partial curve, poor fit]
